This experiment concerns CD2F1 mice, ip reticulum cell sarcoma, survival T/C. The experiment is described as follows: NCI In Vivo Anticancer Drug Screen. Data for tumor model Reticulum Cell Sarcoma (Kelley Mouse) (intraperitoneal) in CD2F1 (CDF1) mice. The following applies: T/C endpoint: median survival time, schedule: Q01DX010 (ip), vehicle: saline, higher T/C = longer survival. The method, then:
The antitumor activity of compounds was measured in mice bearing transplantable tumors. Survival or tumor size were measured and the results are expressed as the measurement made in the treated group (T) divided by the measurement made in the vehicle treated control group (C). The tumor model used in this assay is Reticulum Cell Sarcoma (Kelley Mouse) (intraperitoneal) in CD2F1 (CDF1) mice

The list is a part of this screen's results and no random one: its compounds were picked by chemical class. Other doses and runs of a compound may be missing. T/C gives the treated animals as a percentage of the vehicle group. Some entries give survivors of the animals treated and no T/C: the source holds a T/C of zero for them, seemingly a mark for toxic or unscored doses. Some survivor counts are full or nearly so, which does not show that the dose was tolerated: the source hardly ever lists a survival T/C far under the control, and the zero likely stands for such cases as well. Counts of survivors are from the toxicity check (mostly the fifth day) where no day follows; animals may have died later. Schedules are NCI's codes, taken here to give the interval after Q, in days (D) or hours (H), and the number of doses after X. Some entries were tested several times; the results are listed from low to high. For survival time, the PubChem record calls one and a half times the control and up active, and a quarter to a half above the control has no call in these data; cut-offs in other NCI protocols can differ. Signs of the kind (2×) give the number of equal values in this list. Some T/C values are followed by the survivors on the day toxicity was checked, most often the fifth; without a count or a note in brackets, all were alive then.

The source of these data is PubChem BioAssay AID340 (DTP/NCI, 2004).

For the molecule `NC1CCCCC1.O=P(O)(N(CCCl)CCCl)N1CC1`, the T/C (dose: 1.25 mg/kg/injection) is 100 % of control; the T/C (dose: 2.5 mg/kg/injection) was 106 % of control (2×); the T/C (dose: 5.0 mg/kg/injection) is 109 and 116 % of control; the T/C (dose: 10.0 mg/kg/injection) is 124 and 156 % of control; the T/C (dose: 20.0 mg/kg/injection) was 118 % of control.
Regarding `CN(N=O)C(=N)N[N+](=O)[O-]`, the T/C (dose: 8.0 mg/kg/injection) was 126 and 135 % of control; the T/C (dose: 16.0 mg/kg/injection) is 105 and 113 % of control; the T/C (dose: 32.0 mg/kg/injection) was 100 [5 of 6 alive] and 102 % of control. Moreover, the survivor count (dose: 64.0 mg/kg/injection) is 5 of 6 and 6 of 6.
As to `CC[C@@H](C)[C@@H]1NC(=O)/C(=C(\C)O)C1=O.c1ccc(CNCCNCc2ccccc2)cc1`, the T/C is, setting by setting: (dose: 10.0 mg/kg/injection) 100 % of control; (dose: 14.0 mg/kg/injection) 106 % of control; (dose: 20.0 mg/kg/injection) 106 % of control; (dose: 30.0 mg/kg/injection) 100 % of control.
